PubChem BioAssay AID504784 | Drosophila RNAi Screening Center | 2011

Assay: 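Search for regulators of lipid droplet storage in oleate-fed fly cells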 (primary screen)
Cell system: Drosophila Kc167 embryonic cells
Reagent: long dsRNA against Drosophila genes, about 250 ng dsRNA per well
Time to read-out: 4 days
Conditions: cells fed 400 µM oleic acid bound to BSA
Measured: 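Cells imaged and segmented; ratio of lipid droplet area to nuclear area, log-transformed, then normalised as a B-score over the screen; higher means more stored lipid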
Direction: droplet/nuclear area B-score: higher = more stored lipid (overstorage)
The deposit covers about 17,000 reagents; this is a random part of those that have a named target and a result. 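Each column is one replicate's B-score; the combined score over replicates was not deposited, so single values may mislead.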 Reagents against one gene are numbered here. Names joined by + are all predicted targets of the reagent. Not all columns of the deposit are shown.

What is on record for Dmtn?
droplet/nuclear area B-score, replicate 1: -0.162

How did the screen score CG8483?
droplet/nuclear area B-score, replicate 1: -0.873

What did the screen give for Abl #1?
droplet/nuclear area B-score, replicate 1: -0.33

For Abl #2, what does the deposit list?
droplet/nuclear area B-score, replicate 1: 0.7

Which result is listed for euc?
droplet/nuclear area B-score, replicate 1: -1.06

For Cdk5alpha #1, how do the results read?
droplet/nuclear area B-score, replicate 1: -1.09

For Cdk5alpha #2, what does the deposit list?
droplet/nuclear area B-score, replicate 1: 1.79

What did the screen give for Dll?
droplet/nuclear area B-score, replicate 1: -0.808

For ndl, what does the deposit list?
droplet/nuclear area B-score, replicate 1: -0.279

For Rh7, how do the results read?
droplet/nuclear area B-score, replicate 1: 0.0401

How did the screen score CG31528?
droplet/nuclear area B-score, replicate 1: 0.929

With Lcp4, how do the results read?
droplet/nuclear area B-score, replicate 1: -0.55

What is on record for CG13989?
droplet/nuclear area B-score, replicate 1: -0.017

With CG18599 #1, how do the results read?
droplet/nuclear area B-score, replicate 1: -0.355

Which result is listed for CG18599 #2?
droplet/nuclear area B-score, replicate 1: -3.44

For CG18599 #3, what was measured?
droplet/nuclear area B-score, replicate 1: -1.09

What is on record for ProtB?
droplet/nuclear area B-score, replicate 1: 0.0699

What did the screen give for CG1738?
droplet/nuclear area B-score, replicate 1: -0.904

3 successive records from above, for reference:
Abl #2 → droplet/nuclear area B-score, replicate 1: 0.7
euc → droplet/nuclear area B-score, replicate 1: -1.06
Cdk5alpha #1 → droplet/nuclear area B-score, replicate 1: -1.09

The results go on:
For Pdxk, what does the deposit list?
droplet/nuclear area B-score, replicate 1: 0.368

With CG7573, what does the deposit list?
droplet/nuclear area B-score, replicate 1: 1.34

With CG15812, what does the deposit list?
droplet/nuclear area B-score, replicate 1: -0.618

With Zcchc7, how do the results read?
droplet/nuclear area B-score, replicate 1: -0.927

How did the screen score RhoGAP102A?
droplet/nuclear area B-score, replicate 1: -1.11

What did the screen give for Ptpa?
droplet/nuclear area B-score, replicate 1: -0.422

What did the screen give for Or69a?
droplet/nuclear area B-score, replicate 1: 0.0201

With lncRNA:CR32658, what was measured?
droplet/nuclear area B-score, replicate 1: 0.414

Which result is listed for CG14837?
droplet/nuclear area B-score, replicate 1: 0.276

With CG4306, what was measured?
droplet/nuclear area B-score, replicate 1: 0.174

What is on record for CG4757?
droplet/nuclear area B-score, replicate 1: -1.28

For Crys, what was measured?
droplet/nuclear area B-score, replicate 1: -0.834

How did the screen score CG13653?
droplet/nuclear area B-score, replicate 1: 0.77

What did the screen give for RanBPM?
droplet/nuclear area B-score, replicate 1: -0.786

For CG12692, what was measured?
droplet/nuclear area B-score, replicate 1: -3.61

With CG17618 (retired record) + CG45049 #1, what does the deposit list?
droplet/nuclear area B-score, replicate 1: -2.6

With CG17618 (retired record) + CG45049 #2, what does the deposit list?
droplet/nuclear area B-score, replicate 1: 0.656

With CG17618 (retired record) + CG45049 #3, what was measured?
droplet/nuclear area B-score, replicate 1: 0.006

For CG42496 + Ppcdc, what was measured?
droplet/nuclear area B-score, replicate 1: 2.62

What did the screen give for indra?
droplet/nuclear area B-score, replicate 1: 0.268

What did the screen give for Ugt304A1?
droplet/nuclear area B-score, replicate 1: -0.00293

What did the screen give for Mtr3?
droplet/nuclear area B-score, replicate 1: -1.2
